This is an account of results in paper PMC5016123.

No constants are given. Whether binding was seen depends on the method and setting. Binding seen in cells or lysates may run through a third protein. Where a sequence is shown, tags or fusion partners need not be part of it.

The experiment addresses T1, GST-fused polo-box domain (PBD) of Cdc5, wild type (S. cerevisiae) (UniProt P32562).
T1 sequence: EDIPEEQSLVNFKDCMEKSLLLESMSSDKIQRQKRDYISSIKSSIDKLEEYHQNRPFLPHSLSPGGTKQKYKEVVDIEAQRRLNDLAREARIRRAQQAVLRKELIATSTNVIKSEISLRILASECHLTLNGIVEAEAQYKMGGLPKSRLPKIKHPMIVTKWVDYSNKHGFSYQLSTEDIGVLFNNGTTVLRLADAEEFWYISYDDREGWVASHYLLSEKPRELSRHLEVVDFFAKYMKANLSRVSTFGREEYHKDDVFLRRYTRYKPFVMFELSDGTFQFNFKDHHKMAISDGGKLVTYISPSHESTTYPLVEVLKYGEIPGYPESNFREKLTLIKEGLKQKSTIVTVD
As to the kind of experiment: pull-down; GST-fused PBD, Cdc5 or GST only and an HA-tagged cohesin subunit or Scc1 fragment co-overexpressed in G2/M-arrested (benomyl) yeast cells; clarified lysate on glutathione-Sepharose 4B beads 1 h at 4 °C; 40 mM Hepes-KOH pH 7.4, 140 mM NaCl, 10% glycerol, 0.1% Triton X-100, 1 mM DTT, protease and phosphatase inhibitors; three washes; anti-HA and anti-GST Western blot. (In western blotting, separated proteins are transferred to a membrane and probed.)

Consider “HA-tagged Scc1 fragment ΔMC2 (S. cerevisiae) (domain or fragment)”, for which the binding entry is “no binding”.
